The results in this text go back to the supplement of paper PMC11006884.

Chains of the proteins cited; added tags and fusions are not shown. Lines headed by an entry give the natural chain unless they say otherwise; changes in a name come on top.
UniProt Q7Z3T8: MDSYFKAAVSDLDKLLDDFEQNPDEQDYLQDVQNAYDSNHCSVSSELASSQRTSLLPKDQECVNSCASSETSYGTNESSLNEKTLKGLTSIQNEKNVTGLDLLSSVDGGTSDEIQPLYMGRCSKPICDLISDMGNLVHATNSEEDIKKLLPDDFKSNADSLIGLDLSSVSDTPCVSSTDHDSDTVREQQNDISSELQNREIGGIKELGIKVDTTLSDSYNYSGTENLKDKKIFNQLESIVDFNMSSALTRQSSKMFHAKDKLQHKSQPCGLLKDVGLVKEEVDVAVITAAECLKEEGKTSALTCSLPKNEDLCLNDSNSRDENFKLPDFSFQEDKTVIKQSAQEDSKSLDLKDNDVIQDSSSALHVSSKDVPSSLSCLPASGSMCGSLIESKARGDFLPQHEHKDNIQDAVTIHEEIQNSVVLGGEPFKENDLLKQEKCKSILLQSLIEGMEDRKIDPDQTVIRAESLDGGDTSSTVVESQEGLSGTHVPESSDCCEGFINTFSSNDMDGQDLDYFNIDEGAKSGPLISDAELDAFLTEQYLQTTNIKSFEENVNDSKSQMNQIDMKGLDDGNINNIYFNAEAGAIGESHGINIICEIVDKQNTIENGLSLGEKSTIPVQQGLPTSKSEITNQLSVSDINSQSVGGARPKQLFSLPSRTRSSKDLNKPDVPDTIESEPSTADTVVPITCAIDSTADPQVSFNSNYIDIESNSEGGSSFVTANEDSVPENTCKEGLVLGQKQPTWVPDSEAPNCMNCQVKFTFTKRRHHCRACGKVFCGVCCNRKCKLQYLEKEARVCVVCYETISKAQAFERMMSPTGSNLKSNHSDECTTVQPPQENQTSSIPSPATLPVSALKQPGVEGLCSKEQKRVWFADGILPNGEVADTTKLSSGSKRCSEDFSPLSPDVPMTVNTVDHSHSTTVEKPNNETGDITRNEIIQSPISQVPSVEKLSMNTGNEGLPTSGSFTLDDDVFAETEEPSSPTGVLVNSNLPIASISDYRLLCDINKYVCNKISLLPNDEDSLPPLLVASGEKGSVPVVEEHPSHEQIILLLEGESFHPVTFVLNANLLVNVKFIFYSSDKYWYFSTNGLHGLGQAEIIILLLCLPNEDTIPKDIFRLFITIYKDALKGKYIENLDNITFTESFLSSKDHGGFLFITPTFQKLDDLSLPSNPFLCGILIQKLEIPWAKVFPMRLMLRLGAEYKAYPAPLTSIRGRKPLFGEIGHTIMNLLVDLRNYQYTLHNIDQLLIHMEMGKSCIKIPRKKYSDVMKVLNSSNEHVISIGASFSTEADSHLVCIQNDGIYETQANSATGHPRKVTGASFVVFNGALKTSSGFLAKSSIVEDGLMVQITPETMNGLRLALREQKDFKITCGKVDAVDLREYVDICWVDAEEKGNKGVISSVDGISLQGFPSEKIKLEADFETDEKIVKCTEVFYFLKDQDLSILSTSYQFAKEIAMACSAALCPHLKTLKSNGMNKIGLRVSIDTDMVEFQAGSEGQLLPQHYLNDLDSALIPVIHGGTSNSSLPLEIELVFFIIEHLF
UniProt Q8IWB7: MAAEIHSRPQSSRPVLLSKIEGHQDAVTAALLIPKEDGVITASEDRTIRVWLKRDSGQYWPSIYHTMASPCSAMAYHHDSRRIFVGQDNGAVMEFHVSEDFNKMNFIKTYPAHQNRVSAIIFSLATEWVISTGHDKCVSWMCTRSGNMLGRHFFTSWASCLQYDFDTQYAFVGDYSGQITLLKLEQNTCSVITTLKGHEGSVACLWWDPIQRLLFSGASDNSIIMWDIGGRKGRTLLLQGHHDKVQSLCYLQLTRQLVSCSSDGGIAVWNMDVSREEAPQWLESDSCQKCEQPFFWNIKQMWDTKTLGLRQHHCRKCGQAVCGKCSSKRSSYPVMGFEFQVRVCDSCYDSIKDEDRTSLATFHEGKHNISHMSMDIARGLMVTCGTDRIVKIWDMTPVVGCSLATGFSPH
UniProt Q7Z3C6: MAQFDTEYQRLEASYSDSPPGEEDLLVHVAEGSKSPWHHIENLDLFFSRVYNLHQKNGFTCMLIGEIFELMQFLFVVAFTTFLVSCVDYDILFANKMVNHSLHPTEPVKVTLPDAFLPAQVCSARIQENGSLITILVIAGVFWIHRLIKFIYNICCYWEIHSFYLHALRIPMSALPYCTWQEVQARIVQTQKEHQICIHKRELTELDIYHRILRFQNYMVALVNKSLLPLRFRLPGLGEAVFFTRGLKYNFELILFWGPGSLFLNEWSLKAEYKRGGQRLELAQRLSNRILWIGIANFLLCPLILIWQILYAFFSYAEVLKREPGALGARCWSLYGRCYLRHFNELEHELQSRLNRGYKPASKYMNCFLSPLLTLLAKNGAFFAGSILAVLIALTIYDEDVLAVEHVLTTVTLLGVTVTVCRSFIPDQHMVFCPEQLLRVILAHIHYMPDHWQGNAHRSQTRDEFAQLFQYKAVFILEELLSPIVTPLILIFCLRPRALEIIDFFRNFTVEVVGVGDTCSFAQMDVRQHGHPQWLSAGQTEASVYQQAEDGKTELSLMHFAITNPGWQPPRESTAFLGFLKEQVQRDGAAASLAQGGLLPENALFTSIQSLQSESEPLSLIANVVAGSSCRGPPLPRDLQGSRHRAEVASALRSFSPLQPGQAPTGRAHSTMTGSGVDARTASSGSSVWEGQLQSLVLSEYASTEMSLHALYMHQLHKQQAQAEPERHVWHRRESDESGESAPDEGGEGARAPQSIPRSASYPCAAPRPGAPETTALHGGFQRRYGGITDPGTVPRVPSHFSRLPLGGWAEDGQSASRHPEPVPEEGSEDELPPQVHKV
UniProt Q8IWS0: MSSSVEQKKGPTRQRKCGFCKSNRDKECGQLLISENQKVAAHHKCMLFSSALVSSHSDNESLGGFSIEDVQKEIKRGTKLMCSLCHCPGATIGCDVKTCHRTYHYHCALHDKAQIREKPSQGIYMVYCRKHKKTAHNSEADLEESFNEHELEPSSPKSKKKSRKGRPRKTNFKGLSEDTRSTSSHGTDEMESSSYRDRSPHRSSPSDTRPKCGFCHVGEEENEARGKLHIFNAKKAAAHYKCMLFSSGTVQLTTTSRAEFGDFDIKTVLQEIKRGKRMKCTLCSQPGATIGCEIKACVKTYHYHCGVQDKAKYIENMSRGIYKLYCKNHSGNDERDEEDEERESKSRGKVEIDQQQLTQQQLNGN
UniProt Q86UP2: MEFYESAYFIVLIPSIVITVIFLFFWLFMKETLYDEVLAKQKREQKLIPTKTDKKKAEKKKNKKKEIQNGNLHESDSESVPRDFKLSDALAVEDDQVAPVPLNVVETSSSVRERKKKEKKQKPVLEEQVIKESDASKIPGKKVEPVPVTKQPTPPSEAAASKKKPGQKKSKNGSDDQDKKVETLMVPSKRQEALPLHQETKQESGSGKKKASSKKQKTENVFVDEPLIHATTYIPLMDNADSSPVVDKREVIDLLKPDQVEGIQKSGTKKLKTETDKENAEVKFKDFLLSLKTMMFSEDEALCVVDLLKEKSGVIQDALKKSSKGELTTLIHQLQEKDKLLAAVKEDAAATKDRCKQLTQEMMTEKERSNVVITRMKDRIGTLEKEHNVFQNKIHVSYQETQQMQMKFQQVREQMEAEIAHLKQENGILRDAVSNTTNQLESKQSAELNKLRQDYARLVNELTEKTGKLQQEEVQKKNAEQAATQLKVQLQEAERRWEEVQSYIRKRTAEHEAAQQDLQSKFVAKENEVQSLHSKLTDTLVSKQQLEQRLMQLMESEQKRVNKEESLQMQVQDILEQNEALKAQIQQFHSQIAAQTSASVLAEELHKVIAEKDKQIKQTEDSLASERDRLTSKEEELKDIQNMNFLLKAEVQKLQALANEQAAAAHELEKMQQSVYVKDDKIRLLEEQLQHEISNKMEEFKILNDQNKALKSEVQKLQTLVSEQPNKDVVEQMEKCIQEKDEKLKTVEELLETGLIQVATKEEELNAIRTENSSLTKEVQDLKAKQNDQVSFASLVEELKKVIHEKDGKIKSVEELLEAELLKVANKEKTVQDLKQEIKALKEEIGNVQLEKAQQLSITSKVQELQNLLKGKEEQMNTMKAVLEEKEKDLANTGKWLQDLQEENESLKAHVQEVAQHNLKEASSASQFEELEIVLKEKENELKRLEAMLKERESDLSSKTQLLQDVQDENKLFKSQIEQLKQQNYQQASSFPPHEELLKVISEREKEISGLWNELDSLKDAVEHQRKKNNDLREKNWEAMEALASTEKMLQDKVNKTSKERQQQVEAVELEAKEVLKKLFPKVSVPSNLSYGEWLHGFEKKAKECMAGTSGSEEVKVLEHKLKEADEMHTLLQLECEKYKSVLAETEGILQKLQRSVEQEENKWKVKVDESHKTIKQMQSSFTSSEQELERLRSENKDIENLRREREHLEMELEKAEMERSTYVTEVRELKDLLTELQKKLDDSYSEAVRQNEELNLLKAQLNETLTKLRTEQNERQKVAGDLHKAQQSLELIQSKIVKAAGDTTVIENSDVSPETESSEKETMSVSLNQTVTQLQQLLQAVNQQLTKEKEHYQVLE
UniProt Q7KZF4: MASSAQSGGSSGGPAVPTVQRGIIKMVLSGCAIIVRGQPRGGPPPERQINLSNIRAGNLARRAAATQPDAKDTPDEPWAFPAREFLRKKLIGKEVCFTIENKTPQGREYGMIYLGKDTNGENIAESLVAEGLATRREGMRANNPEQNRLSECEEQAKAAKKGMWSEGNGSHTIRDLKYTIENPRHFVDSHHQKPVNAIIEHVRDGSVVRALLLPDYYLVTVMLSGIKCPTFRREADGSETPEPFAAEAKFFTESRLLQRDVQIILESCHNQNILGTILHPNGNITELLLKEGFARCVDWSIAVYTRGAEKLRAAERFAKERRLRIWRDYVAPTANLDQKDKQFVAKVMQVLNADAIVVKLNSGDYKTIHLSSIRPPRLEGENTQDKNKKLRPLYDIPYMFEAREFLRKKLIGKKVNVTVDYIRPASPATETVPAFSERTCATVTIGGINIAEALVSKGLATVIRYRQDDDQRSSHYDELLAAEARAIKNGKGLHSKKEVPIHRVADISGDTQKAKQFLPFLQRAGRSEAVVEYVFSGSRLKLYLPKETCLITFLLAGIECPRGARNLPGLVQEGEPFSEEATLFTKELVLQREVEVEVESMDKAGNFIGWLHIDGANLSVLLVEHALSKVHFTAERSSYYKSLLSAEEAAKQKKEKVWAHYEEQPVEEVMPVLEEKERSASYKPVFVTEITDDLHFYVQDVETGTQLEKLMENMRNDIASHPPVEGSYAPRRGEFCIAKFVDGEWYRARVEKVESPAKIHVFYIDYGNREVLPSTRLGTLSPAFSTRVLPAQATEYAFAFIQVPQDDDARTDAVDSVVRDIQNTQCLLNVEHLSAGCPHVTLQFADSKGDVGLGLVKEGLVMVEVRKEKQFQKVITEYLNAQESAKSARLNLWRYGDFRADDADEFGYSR
UniProt Q8IY37: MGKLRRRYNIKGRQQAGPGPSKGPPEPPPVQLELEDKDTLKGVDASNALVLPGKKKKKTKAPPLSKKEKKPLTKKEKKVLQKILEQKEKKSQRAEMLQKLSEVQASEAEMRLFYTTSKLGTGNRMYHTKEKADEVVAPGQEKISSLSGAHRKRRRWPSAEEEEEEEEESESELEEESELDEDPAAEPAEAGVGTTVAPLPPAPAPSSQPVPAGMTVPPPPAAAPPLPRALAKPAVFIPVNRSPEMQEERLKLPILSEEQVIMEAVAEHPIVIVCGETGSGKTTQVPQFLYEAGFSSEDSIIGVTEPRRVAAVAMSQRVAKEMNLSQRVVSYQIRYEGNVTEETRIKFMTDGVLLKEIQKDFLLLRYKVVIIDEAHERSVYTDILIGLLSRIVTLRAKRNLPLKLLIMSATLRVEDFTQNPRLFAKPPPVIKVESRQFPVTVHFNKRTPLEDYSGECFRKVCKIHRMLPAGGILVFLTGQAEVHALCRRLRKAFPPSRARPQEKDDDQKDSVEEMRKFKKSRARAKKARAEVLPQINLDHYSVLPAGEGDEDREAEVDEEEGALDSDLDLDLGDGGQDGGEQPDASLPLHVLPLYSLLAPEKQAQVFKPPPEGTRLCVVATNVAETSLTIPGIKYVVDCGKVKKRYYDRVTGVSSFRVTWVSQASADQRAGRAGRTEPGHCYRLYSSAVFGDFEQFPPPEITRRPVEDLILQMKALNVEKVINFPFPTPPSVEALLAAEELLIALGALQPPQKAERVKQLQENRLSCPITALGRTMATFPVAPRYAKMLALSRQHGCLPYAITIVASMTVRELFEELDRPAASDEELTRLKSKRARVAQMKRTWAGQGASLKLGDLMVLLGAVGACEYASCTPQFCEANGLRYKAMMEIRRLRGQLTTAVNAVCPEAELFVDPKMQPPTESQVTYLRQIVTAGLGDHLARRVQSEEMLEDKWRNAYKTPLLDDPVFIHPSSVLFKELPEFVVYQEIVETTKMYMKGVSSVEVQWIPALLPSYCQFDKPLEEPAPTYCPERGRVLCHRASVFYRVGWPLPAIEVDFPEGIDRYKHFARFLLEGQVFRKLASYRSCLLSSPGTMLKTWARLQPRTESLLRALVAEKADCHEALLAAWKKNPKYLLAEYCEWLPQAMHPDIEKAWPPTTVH

The entries are a selection whose mix differs from that of the whole data set.

Compound in this assay: COC(=O)C#Cc1ccccc1 [methyl 3-phenylpropiolate]
Briefly: log2 ratio of iodoacetamide-alkyne labeling of the cysteine site, DMSO over compound (competition); higher = stronger covalent engagement of the cysteine by the compound, active = 1 or more. The following applies: 500 µM; treatment time 1 h; system: HEK293T cell lysate. Summed up:
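HEK293T lysate (2 mg/mL) was treated with DMSO or electrophile (500 µM, 1 h, ambient temperature), then iodoacetamide alkyne (1 h), clicked to sCIP-TMT reagents, pooled, trypsin-digested overnight at 37 °C, streptavidin-enriched and acid-eluted. Peptides were run on Orbitrap Eclipse LC-MS/MS with FAIMS and quantified in FragPipe. The log2 competition ratio per cysteine is mean control-channel over mean compound-channel reporter intensity. Duplicate channels and three replicates were used, and cysteines quantified in only one replicate were excluded.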
On to DCP2 C207 (UniProt Q8IU60), for which the “log2 ratio of iodoacetamide-alkyne labeling” value (from here on “log2 ratio”) is inactive: -0.0161. For ISCA2 C144 (UniProt Q86U28), the “log2 ratio” value is active: 1.59. Regarding CAND1 C571 (UniProt Q86VP6), the “log2 ratio” value was inactive: 0.108. Under ZFYVE16 C292 (UniProt Q7Z3T8) stands inactive: 0.185; under ZC3HAV1 C150 (UniProt Q7Z2W4), inactive: 0.156. Take ZFYVE16 C174 (UniProt Q7Z3T8): the “log2 ratio” value is inactive: 0.35. Under UniProt Q7Z2T5_C265 stands inactive: 0.161. Under SLFN11 C126 (UniProt Q7Z7L1) stands inactive: 0.146.

On to WDFY1 C401 (UniProt Q8IWB7), for which the “log2 ratio” value was inactive: 0.225. Next, UniProt Q7Z5K2_C94: inactive: 0.262. SMC5 C726 (UniProt Q8IY18): the “log2 ratio” value is inactive: 0.249.

Turning to SH3RF1 C658 (UniProt Q7Z6J0), the “log2 ratio” value was inactive: 0.0971. As to UniProt Q7Z2Z2_C599, the “log2 ratio” value is inactive: 0.247. In the case of TSEN54 C338 (UniProt Q7Z6J9), the “log2 ratio” value is inactive: 0.107. Next, UBR1 C1603 (UniProt Q8IWV7): inactive: 0.433. On to UniProt Q7Z2Z2_C646, for which the “log2 ratio” value was inactive: 0.404.

Consider ZFYVE16 C895 (UniProt Q7Z3T8), for which the “log2 ratio” value is inactive: 0.597. As for UniProt Q86U38_C123, the “log2 ratio” value was inactive: 0.313.

ANKLE2 C367 (UniProt Q86XL3): the “log2 ratio” value is inactive: 0.265. Next, ATG9A C764 (UniProt Q7Z3C6): inactive: 0.796.

Consider UniProt Q7Z5K2_C160, for which the “log2 ratio” value was inactive: 0.514. Next, PHF6 C212 (UniProt Q8IWS0): inactive: -0.0802; TRMT2A C392 (UniProt Q8IZ69): inactive: 0.517; KSR1 C777 (UniProt Q8IVT5): inactive: 0.336. Under HPS6 C695 (UniProt Q86YV9) stands inactive: 0.394; under SUPT6H C527 (UniProt Q7KZ85), inactive: 0.307. On to HPS6 C408 (UniProt Q86YV9), for which the “log2 ratio” value was inactive: 0.769. Next, SETD3 C36 (UniProt Q86TU7): inactive: 0.0594; KTN1 C736 (UniProt Q86UP2): inactive: 0.217; THNSL1 C82 (UniProt Q8IYQ7): inactive: 0.297. Under SND1 C560 (UniProt Q7KZF4) stands inactive: 0.522; under ZC3HAV1 C38 (UniProt Q7Z2W4), inactive: 0.429; under MAP7D3 C505 (UniProt Q8IWC1), inactive: 0.196.

As for UniProt Q7RTV0_C61, the “log2 ratio” value is inactive: 0.11. On to DHX37 C766 (UniProt Q8IY37), for which the “log2 ratio” value is inactive: 0.652.

As to CAND1 C1153 (UniProt Q86VP6), the “log2 ratio” value was inactive: 0.443. Turning to NET1 C522 (UniProt Q7Z628), the “log2 ratio” value is inactive: 0.439.
